Measured values taken from patent US20230181598A1, “FORMULATIONS AND METHODS OF TREATING COVID-19 AND PREVENTING INFECTION WITH SARS-CoV-2” (priority 2020, published 2023).
At least one structure is not confirmed: it was looked up by name or label, or the drawing left a doubt.

Tested on: SARS-CoV-2 (strain USA-WA1/2020)
Assay type: cell-based
Conditions: day 5

CCC(CC)COC(=O)[C@H](C)N[P@](=O)(OC[C@H]1O[C@@](C#N)(c2ccc3c(N)ncnn23)[C@H](O)[C@@H]1O)Oc1ccccc1 [Remdesivir]
activity against SARS-CoV-2 in dNHBE cells (in words): highly active
